Laboratory results published in publication PMC5213423, “Identification of a Drug Targeting an Intrinsically Disordered Protein Involved in Pancreatic Adenocarcinoma” (Scientific Reports, 2017).
No constants are given. Whether binding was seen depends on the method and setting. Binding seen in cells or lysates may run through a third protein. Some binding calls cover weakened binding; strength is not graded here. Where a sequence is shown, tags or fusion partners need not be part of it.

Target: T1, Nuclear protein 1 (NUPR1), Flag-tagged (human) (UniProt O60356)
T1 sequence: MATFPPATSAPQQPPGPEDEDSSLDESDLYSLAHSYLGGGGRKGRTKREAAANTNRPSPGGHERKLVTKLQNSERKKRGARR
Assay: proximity ligation; MiaPaCa-2 cells on coverslips transfected with NUPR1-Flag and MSL1-V5; one day later treated with Oxaliplatin (10 uM) to induce DNA damage together with DMSO or Compound (1 to 20 uM); PLA 24 h later with antibodies against Flag and V5 (DuoLink kit); red dots counted with ImageJ

B1: Male-specific-lethal protein 1 (MSL1), V5-tagged (protein, UniProt Q68DK7 1-614)
chain: MTMRSAVFKAAAAPAGGNPEQRLDYERAAALGGPEDEPGAAEAHFLPRHRKLKEPGPPLASSQGGSPAPSPAGCGGKGRGLLLPAGAAPGQQEESWGGSVPLPCPPPATKQAGIGGEPAAAGAGCSPRPKYQAVLPIQTGSLVAAAKEPTPWAGDKGGAASPAATASDPAGPPPLPLPGPPPLAPTATAGTLAASEGRWKSMRKSPLGGGGGSGASSQAACLKQILLLQLDLIEQQQQQLQAKEKEIEELKSERDTLLARIERMERRMQLVKKDNEKERHKLFQGYETEEREETELSEKIKLECQPELSETSQTLPPKPFSCGRSGKGHKRKSPFGSTERKTPVKKLAPEFSKVKTKTPKHSPIKEEPCGSLSETVCKRELRSQETPEKPRSSVDTPPRLSTPQKGPSTHPKEKAFSSEIEDLPYLSTTEMYLCRWHQPPPSPLPLRESSPKKEETVARCLMPSSVAGETSVLAVPSWRDHSVEPLRDPNPSDLLENLDDSVFSKRHAKLELDEKRRKRWDIQRIREQRILQRLQLRMYKKKGIQESEPEVTSFFPEPDDVESLMITPFLPVVAFGRPLPKLTPQNFELPWLDERSRCRLEIQKKQTPHRTCRK
In the case of B1, the binding is reported as “binds”.
